Measured values as given in PubChem BioAssay (Tox21).
Values joined by “and” are separate entries in the source; they are usually repeats but may differ in a detail not shown here. Identical values can stand only once. The shares of active, inactive and inconclusive entries below differ from those in the screen. For some of these results: A potency beside an inconclusive call is a rough fit, not a confirmed value. Where a structure was tested more than once in an assay, its records may differ in their call. Active and inactive are the calls of the source. Unless noted, the call rests on the fitted dose curve.

By UniProt entry, the sequences of proteins in these tests, tags left out. Where a name states a change or a piece, a line headed by the entry shows the natural chain unless it says otherwise.
UniProt P11229: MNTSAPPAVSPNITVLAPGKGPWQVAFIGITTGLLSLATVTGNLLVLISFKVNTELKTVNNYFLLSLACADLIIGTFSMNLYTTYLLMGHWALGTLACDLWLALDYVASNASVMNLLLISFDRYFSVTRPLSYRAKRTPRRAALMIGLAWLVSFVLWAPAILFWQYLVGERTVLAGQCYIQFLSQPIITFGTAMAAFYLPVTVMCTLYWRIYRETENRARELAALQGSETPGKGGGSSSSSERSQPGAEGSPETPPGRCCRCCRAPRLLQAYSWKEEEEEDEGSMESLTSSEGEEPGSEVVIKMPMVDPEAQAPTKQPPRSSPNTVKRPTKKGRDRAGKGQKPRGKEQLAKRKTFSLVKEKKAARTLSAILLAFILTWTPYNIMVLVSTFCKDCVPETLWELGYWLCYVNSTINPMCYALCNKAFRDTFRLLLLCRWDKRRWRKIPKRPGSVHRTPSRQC
UniProt P14416, whole entry, looked up: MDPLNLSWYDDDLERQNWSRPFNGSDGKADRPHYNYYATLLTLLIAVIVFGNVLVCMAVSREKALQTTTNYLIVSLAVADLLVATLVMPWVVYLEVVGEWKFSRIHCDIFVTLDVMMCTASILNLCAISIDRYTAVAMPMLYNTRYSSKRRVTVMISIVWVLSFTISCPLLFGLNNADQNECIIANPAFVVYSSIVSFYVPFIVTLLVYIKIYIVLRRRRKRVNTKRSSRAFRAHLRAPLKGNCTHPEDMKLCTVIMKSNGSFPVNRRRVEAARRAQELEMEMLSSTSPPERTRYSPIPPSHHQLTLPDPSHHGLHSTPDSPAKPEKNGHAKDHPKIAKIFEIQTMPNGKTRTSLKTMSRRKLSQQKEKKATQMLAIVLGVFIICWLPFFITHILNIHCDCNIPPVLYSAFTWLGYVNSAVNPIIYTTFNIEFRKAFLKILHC
UniProt P28223, whole entry, looked up: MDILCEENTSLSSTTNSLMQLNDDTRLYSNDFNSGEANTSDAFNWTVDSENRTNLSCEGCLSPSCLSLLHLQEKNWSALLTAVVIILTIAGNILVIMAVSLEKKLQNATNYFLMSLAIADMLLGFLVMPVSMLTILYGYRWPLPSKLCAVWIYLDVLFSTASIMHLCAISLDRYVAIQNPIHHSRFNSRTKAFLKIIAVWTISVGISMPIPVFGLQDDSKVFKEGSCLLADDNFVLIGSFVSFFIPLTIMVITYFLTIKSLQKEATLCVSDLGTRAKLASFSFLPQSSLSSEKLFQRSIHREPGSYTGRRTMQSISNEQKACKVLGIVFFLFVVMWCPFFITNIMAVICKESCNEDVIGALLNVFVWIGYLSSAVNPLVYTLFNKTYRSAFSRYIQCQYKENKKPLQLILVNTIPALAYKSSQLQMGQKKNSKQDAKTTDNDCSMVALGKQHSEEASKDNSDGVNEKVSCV

Key:
[1] = Nuclear factor erythroid 2-related factor 2/antioxidant responsive element (Nrf2/ARE) small molecule agonists: luciferase reporter gene qHTS assay in human keratinocytes (AID 1919969); further: nearly all actives have a fitted effect of over 35% in size; further: potency means the concentration at half of the fitted maximal effect
[2] = p53 small molecule agonists, cell-based qHTS assay with rat liver microsomes (AID 1963578); details: HCT-116 p53RE-bla, beta-lactamase ratio, 16 h; activation: at 66 µM (top of the series) unless noted; further: potency means the concentration at half of the fitted maximal effect
Summary of the method: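 Read-out is beta-lactamase reporter fluorescence (LiveBLAzer, 2 h, room temperature, dark) in p53RE-bla cells treated 16 h at 37 C with compound, rat liver microsomes and NADPH, both 0.5 mg/mL final.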

[3] = p53 small molecule agonists, cell-based qHTS assay with rat liver microsomes: qHTS cell viability counter screen (AID 1963580); further: on the % scale 0 is the no-effect control and ±100 the full control effect; nearly all actives have a fitted effect of over 45% in size
Summary of the method: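 HCT-116 p53RE-bla, 4,000 cells/well, 5 h pre-incubation; cpd + rat liver microsomes 0.5 mg/mL + NADPH 0.5 mg/mL (final); 16 h, 37 C; CellTiter-Glo, 30 min RT; luminescence.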

[4] = molecular target: Muscarinic acetylcholine receptor M1 (Homo sapiens) (UniProt P11229); experiment: Cholinergic receptor muscarinic 1 (CHRM1) small molecule antagonists, cell-based qHTS assay (AID 1963588); further: potency means the concentration at half of the fitted maximal effect; nearly all actives have a fitted effect of over 40% in size
Summary of the method: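 CHRM1-CHO calcium-flux assay, antagonist mode. Cells were seeded 18 h, dye-loaded 1 h at 37 C and given compound for 5 min at RT, then acetylcholine was added at 50nM. FDSS fluorescence was read 3 min; 15 concentrations, three runs.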

[5] = molecular target: Beta-2 adrenergic receptor (Homo sapiens) (UniProt P07550); experiment: Adrenergic beta2 receptor (ADRB2) small molecule agonists, cell-based qHTS assay (AID 1963593); details: CHO-ADRB2 cells, cAMP HTRF, 30 min; further: potency means the concentration at half of the fitted maximal effect;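 on activation: CHO cells stably overexpressing human ADRB2; on the % scale 0 is the no-effect control and ±100 the full control effect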
Summary of the method: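 CHO cells stably over-expressing ADRB2 were plated overnight at 37C, then dosed with compounds plus a stimulation mix containing 100uM IBMX and 25uM Ro-20-1724 for 0.5hr at room temperature. cAMP was measured by HTRF competition, 1hr.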

[6] = p53 small molecule agonists, cell-based qHTS assay with human liver microsomes (AID 1963577); details: HCT-116 p53RE-bla with human liver microsomes, ratio, 16 h; activation: at 66 µM (top of the series) unless noted; further: potency means the concentration at half of the fitted maximal effect; on activation: on the % scale 0 is the no-effect control and ±100 the full control effect
Summary of the method: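 Compounds act here after metabolic activation: human liver microsomes and NADPH, both at 0.5 mg/mL final, were co-added to p53RE-bla cells. Incubation ran 16 h at 37 C, followed by LiveBLAzer detection.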

[7] = cAMP Responsive Elements (CRE) small molecule antagonists, cell-based qHTS assay (AID 1963591; active means well fitted inhibition curve with a large enough effect in the signal ratio in the repeat runs, not every such curve was filed as active; inconclusive means weak or mixed curves, or effect the other way; the % refers to the signal ratio; further: potency means the concentration at half of the fitted maximal effect; on activity change, negative = inhibition: on the % scale 0 is the no-effect control and ±100 the full control effect); details: CRE-bla HEK293T, beta-lactamase FRET ratio; activity change, negative = inhibition: at 92.4 µM (top of the series) unless noted
Summary of the method: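 CRE-bla HEK293T cells plated 18 h, then given compound plus NKH477 at 0.25 uM final for 3 h at 37C. Beta-lactamase reporter read with LiveBLAzer B/G FRET substrate after 2 h at room temperature.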

[8] = molecular target: D(2) dopamine receptor (Homo sapiens) (UniProt P14416); experiment: Dopamine D2 receptor (DRD2) small molecule agonists, cell-based qHTS assay (AID 1963594); details: HEK293-DRD2 cAMP HTRF, agonist mode, 30 min; activation: at 92.4 µM (top of the series) unless noted; further: nearly all actives have a fitted effect of over 35% in size; further: potency means the concentration at half of the fitted maximal effect
Summary of the method: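 cAMP accumulation in DRD2-HEK293 cells measured by HTRF after 1 h detection; compounds added 10 min before NKH477 (200nM […]) forskolin-analogue stimulation, 30 min at room temperature, with Ro20-1724 present at 0.1 mM final.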

[9] = p53 small molecule agonists, cell-based qHTS assay with human liver microsomes: qHTS cell viability counter screen (AID 1963579); further: potency means the concentration at half of the fitted maximal effect; nearly all actives have a fitted effect of over 45% in size
Summary of the method: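 Cells carrying the p53 response-element beta-lactamase reporter are treated for 16 h at 37 C with test compounds in the presence of human liver microsomes and NADPH (both 0.5 mg/mL final); ATP-based CellTiter-Glo luminescence then reports viability.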

[10] = p53 small molecule agonists, cell-based qHTS assay: qHTS cell viability counter screen (AID 1963581); further: nearly all actives have a fitted effect of over 45% in size; further: potency means the concentration at half of the fitted maximal effect
Summary of the method: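 p53RE-bla HCT-116 cells, compounds added 5 h after plating and incubated 16 h at 37 C. Cytotoxicity measured in the same wells as intracellular ATP by CellTiter-Glo luminescence after 30 min at room temperature.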

[11] = p53 small molecule agonists, cell-based qHTS assay (AID 1963582; active means well fitted activation curve with a large enough effect in the signal ratio in the repeat runs, not every such curve was filed as active; inconclusive means weak or mixed curves; the % refers to the signal ratio; further: potency means the concentration at half of the fitted maximal effect); details: HCT-116 p53RE-bla reporter, beta-lactamase FRET ratio, 16 h; activation: at 66 µM (top of the series) unless noted
Summary of the method: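 p53RE-bla reporter cells, compounds added in DMSO after 5 h plating, incubated 16 h at 37 C. Beta-lactamase read via 2 h room-temperature LiveBLAzer B/G FRET substrate, fluorescence intensity.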

[12] = cAMP Responsive Elements (CRE) small molecule agonists, cell-based qHTS assay (AID 1963590); details: CRE-bla HEK293T, beta-lactamase FRET ratio, 3 h; activation: at 92.4 µM (top of the series) unless noted; further: potency means the concentration at half of the fitted maximal effect
Summary of the method: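 CRE-bla HEK 293T cells, 2,000/well in DMEM with 10% dialyzed FBS and 25 mM HEPES, pre-incubated 18 h at 37 C, then exposed to compound 3 h at 37 C. Beta-lactamase reporter read with LiveBLAzer B/G FRET substrate after 2 h at room temperature.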

[13] = molecular target: 5-hydroxytryptamine receptor 2A (Homo sapiens) (UniProt P28223); experiment: 5-hydroxytryptamine receptor 2A (HTR2A) small molecule agonists, cell-based qHTS assay (AID 1963587); details: HTR2A-CHO cells, calcium flux fluorescence, agonist mode; activation: at 76.8 µM (top of the series); further: potency means the concentration at half of the fitted maximal effect; nearly all actives have a fitted effect of over 30% in size
Summary of the method: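 Kinetic calcium-flux fluorescence (2 min, 1 sec intervals) after compound addition in agonist mode. HTR2A-CHO cells were cultured 18 h, then dye-loaded 1 h at 37 C.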

[14] = molecular target: 5-hydroxytryptamine receptor 2A (Homo sapiens) (UniProt P28223); experiment: 5-hydroxytryptamine receptor 2A (HTR2A) small molecule antagonists, cell-based qHTS assay (AID 1963586); further: potency means the concentration at half of the fitted maximal effect; nearly all actives have a fitted effect of over 45% in size
Summary of the method: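 Antagonist-mode intracellular calcium assay: DOI (4 nM) added after 5 min compound pre-incubation at room temperature to dye-loaded HTR2A-CHO cells. Fluorescence followed for 3 min, sampled every second.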

[15] = molecular target: Beta-2 adrenergic receptor (Homo sapiens) (UniProt P07550); experiment: Adrenergic beta2 receptor (ADRB2) small molecule antagonists, cell-based qHTS assay (AID 1963592); details: CHO-ADRB2 cells, isoproterenol-stimulated cAMP HTRF ratio, 0.5 h; activity change, negative = inhibition: at 92.4 µM (top of the series) unless noted; further: nearly all actives have a fitted effect of over 50% in size; further: potency means the concentration at half of the fitted maximal effect
Summary of the method: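 Cells (CHO, stable ADRB2 overexpression) incubated 18-20hr at 37C; compounds added from DMSO; agonist mix (1nM isoproterenol, 100uM IBMX, 25uM Ro-20-1724) added; 0.5hr RT; d2-cAMP and anti-cAMP-cryptate added; 1hr RT; 665/615 nm read.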

[16] = molecular target: D(2) dopamine receptor (Homo sapiens) (UniProt P14416); experiment: Dopamine D2 receptor (DRD2) small molecule antagonists, cell-based qHTS assay (AID 1963595; active means well fitted inhibition curve with a large enough effect in the signal ratio in the repeat runs, with a control signal flat; inconclusive means weak or mixed curves, or effect the other way; the % refers to the signal ratio; further: on the % scale 0 is the no-effect control and ±100 the full control effect); details: HEK293-DRD2 cAMP HTRF antagonist mode; activity change, negative = inhibition: at 92.4 µM (top of the series) unless noted
Summary of the method: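 Human DRD2 antagonist qHTS measuring cAMP by HTRF. The cells are exposed to compound for 10 min, then to NKH477 (200 nM) and quinpirole (12 nM) for 30 min at RT, with Ro20-1724 (0.1 mM) present throughout.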

[17] = activation: at 92.4 µM (top of the series) unless noted

C=CCN=C=S
Potency [1]: inconclusive: 70.1 µM [activator, single point] | Potency [2]: inconclusive: 46.8 µM [fluorescent] | Potency [3]: inactive | Potency [4]: inconclusive: 0.0136 µM [inhibitor, full curve, poor fit] | activation [5, 17]: inconclusive: -56.5% | activation ([5]; at 92.4 µM (top of the series)): inactive: -15.3%

O=C(Cl)OCCOCCOC(=O)Cl
Potency [1]: inactive | Potency [6]: inactive | Potency [7]: inactive | Potency [5, 17]: inactive | activation [8]: inconclusive: -13.2%

Clc1ccc(CSC(Cn2ccnc2)c2ccc(Cl)cc2Cl)cc1 (configuration not stated)
Potency [1]: inconclusive: 13.3 µM [activator, single point] | Potency [9]: inconclusive: 39.7 µM [cytotoxic, single point] | Potency [10]: inconclusive: 22.3 µM [cytotoxic] | Potency [11]: inconclusive: 22.3 µM [single point] | Potency [12]: inactive | Potency [7]: inconclusive: 33.5 µM [inhibitor, single point] | Potency [5, 17]: inactive

CCCCOCCOP(=O)(OCCOCCCC)OCCOCCCC
Potency [1]: inconclusive: 68.6 µM [activator, single point] | Potency [2]: inconclusive: 36.4 µM [activator] | Potency [13]: inconclusive: 61.7 µM [activator, partial curve, poor fit] | Potency [12]: inconclusive: 38.6 µM [rising, partial curve, poor fit] | Potency [5, 17]: inconclusive: 2.73 µM [inhibitor, partial curve, poor fit] | activation [5, 17]: inconclusive: 2.1% | Potency [8]: inconclusive: 17.2 µM [rising, partial curve, poor fit]

CCN(CC)c1c([N+](=O)[O-])cc(C(F)(F)F)c(N)c1[N+](=O)[O-]
Potency [1]: inactive | Potency [9]: inconclusive: 51.3 µM [cytotoxic, single point] | Potency [10]: inactive | Potency [14]: inconclusive: 42.1 µM [inhibitor, single point] | Potency [4]: inconclusive: 47.2 µM [inhibitor, single point] | Potency [12]: inconclusive: 61.1 µM | Potency [7]: inconclusive: 43.3 µM [partial curve] | Potency [15]: inconclusive: 68.6 µM [activator] | Potency [5, 17]: inactive

COP(=O)(OC)SCn1c(=O)oc2cc(Cl)cnc21
Potency [1]: inconclusive: 34.4 µM [activator, partial curve, poor fit] | Potency [2]: inconclusive: 0.0182 µM [rising, full curve] | Potency [10]: inconclusive: 40.8 µM [rising, single point] | Potency [11]: inconclusive: 51.3 µM [activator, partial curve, poor fit] | Potency [12]: inconclusive: 61.1 µM [rising, partial curve, poor fit] | Potency [7]: inconclusive: 68.6 µM [inhibitor] | Potency [16]: inactive

NCCc1ccc(O)cc1
Potency [1]: inconclusive: 60.6 µM [activator, partial curve, poor fit] | Potency [6]: inconclusive: 12.6 µM [fluorescent, partial curve] | Potency [14]: active: 4.17 µM | Potency [13]: active: 5.45 µM and active: 8.49 µM | activity change, negative = inhibition [7]: inconclusive: 15.7% | Potency [15]: inactive | activation [5, 17]: inconclusive: 9.11% [at 42.5 µM]

C=C(C)C(=O)OCC(CC)CCCC (configuration not stated)
Potency [1]: inconclusive: 24.8 µM [activator, single point] | Potency [2]: inactive | Potency [9]: inconclusive: 13.1 µM [cytotoxic, full curve] | Potency [5, 17]: inconclusive: 2.78 µM [inhibitor, full curve, poor fit]
